Positions count from the first letter of the chain named. No constants are given. Whether binding was seen depends on the method and setting. Some entries that bind do so weakly or less than the wild type.
How the values were obtained:
[1] = molecular target: T1, human LTBP1-proTGFβ1 complex (human, UniProt Q14766 347-1721; P01137 30-390); experiment: Octet binning
T1 construct: Complex of presenting molecule LTBP1 disulfide-linked to a proTGFβ1 homodimer; also called proTGFβ1:LTBP1 complex; LTBP1-TGFβ1 complex

Protein sequences, listed by entry. Tags and fused reporters are not part of them. Lines headed by an entry give the natural chain unless they say otherwise; changes in a name come on top.
UniProt Q14766: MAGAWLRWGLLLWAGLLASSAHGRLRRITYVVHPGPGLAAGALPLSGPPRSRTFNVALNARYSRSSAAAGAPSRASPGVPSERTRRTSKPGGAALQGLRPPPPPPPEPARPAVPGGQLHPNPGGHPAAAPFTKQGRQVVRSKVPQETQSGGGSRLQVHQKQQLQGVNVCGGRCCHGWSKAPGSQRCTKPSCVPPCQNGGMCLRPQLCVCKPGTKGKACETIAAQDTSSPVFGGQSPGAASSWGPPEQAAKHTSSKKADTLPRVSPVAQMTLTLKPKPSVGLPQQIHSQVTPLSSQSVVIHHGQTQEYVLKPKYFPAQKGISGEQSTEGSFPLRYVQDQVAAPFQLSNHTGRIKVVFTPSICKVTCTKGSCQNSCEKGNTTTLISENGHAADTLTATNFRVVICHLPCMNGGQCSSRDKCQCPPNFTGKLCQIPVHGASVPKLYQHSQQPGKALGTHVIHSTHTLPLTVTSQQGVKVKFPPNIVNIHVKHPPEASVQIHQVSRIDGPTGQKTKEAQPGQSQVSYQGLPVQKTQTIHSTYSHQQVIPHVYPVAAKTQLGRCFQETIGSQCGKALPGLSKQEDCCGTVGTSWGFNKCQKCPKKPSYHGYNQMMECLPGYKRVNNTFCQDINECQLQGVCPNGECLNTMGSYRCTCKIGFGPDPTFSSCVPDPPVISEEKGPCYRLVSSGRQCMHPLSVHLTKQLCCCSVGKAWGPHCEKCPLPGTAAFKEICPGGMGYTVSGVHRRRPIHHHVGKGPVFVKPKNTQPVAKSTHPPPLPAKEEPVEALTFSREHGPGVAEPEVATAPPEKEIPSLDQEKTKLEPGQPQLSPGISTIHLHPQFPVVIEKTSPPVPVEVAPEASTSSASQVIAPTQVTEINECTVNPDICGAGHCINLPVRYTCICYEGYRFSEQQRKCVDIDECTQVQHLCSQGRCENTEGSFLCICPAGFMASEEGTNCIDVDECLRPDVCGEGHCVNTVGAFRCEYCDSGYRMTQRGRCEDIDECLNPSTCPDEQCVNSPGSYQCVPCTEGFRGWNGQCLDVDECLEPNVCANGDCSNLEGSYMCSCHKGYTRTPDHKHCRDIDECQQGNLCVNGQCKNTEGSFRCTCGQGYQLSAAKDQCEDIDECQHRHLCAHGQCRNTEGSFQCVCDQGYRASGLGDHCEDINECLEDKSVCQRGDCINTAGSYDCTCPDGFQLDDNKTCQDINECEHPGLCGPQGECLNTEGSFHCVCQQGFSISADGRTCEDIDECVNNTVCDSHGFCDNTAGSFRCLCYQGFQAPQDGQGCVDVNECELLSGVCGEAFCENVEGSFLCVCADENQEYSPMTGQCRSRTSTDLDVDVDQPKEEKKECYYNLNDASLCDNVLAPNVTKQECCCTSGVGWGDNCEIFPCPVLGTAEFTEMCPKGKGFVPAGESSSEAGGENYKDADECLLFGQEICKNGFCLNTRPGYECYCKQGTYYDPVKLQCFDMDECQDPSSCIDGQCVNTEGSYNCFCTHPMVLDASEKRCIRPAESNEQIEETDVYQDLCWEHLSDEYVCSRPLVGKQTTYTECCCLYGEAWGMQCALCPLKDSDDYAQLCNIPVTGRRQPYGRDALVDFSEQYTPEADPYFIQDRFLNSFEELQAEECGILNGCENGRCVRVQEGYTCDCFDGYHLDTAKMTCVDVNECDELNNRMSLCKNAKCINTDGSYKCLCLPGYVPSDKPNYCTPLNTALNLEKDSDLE
UniProt Q9NS15: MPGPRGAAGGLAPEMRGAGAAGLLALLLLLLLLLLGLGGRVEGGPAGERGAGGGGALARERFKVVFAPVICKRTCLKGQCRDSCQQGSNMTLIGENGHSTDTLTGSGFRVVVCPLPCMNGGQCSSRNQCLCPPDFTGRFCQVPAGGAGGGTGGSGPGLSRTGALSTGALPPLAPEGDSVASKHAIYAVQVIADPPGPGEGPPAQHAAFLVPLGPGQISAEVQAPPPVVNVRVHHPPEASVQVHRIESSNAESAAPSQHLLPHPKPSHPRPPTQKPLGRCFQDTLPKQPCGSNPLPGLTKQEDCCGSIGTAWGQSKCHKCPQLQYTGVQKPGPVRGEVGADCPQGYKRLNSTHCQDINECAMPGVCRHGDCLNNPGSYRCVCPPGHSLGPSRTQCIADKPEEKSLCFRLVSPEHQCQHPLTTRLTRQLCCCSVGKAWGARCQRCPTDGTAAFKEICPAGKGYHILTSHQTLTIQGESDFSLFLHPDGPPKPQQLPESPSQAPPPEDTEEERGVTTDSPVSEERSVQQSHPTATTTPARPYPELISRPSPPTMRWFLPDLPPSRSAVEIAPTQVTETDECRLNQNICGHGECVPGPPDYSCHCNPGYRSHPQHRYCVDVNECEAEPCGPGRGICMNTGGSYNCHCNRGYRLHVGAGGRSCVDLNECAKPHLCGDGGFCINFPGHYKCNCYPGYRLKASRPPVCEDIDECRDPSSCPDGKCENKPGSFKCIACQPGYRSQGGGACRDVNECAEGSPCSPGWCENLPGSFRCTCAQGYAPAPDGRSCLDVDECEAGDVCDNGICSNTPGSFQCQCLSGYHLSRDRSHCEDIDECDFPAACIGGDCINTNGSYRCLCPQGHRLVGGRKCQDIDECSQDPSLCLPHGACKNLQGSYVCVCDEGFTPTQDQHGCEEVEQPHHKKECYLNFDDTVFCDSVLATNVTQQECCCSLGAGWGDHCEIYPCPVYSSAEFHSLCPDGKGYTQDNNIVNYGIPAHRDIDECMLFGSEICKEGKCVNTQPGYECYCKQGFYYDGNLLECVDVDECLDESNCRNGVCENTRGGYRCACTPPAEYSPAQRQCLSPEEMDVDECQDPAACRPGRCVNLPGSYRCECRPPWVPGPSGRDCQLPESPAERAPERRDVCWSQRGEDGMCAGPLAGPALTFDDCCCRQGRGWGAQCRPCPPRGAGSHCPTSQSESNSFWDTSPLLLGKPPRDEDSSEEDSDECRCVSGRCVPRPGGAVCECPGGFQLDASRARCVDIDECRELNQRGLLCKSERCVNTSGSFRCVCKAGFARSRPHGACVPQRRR
UniProt Q8CG19: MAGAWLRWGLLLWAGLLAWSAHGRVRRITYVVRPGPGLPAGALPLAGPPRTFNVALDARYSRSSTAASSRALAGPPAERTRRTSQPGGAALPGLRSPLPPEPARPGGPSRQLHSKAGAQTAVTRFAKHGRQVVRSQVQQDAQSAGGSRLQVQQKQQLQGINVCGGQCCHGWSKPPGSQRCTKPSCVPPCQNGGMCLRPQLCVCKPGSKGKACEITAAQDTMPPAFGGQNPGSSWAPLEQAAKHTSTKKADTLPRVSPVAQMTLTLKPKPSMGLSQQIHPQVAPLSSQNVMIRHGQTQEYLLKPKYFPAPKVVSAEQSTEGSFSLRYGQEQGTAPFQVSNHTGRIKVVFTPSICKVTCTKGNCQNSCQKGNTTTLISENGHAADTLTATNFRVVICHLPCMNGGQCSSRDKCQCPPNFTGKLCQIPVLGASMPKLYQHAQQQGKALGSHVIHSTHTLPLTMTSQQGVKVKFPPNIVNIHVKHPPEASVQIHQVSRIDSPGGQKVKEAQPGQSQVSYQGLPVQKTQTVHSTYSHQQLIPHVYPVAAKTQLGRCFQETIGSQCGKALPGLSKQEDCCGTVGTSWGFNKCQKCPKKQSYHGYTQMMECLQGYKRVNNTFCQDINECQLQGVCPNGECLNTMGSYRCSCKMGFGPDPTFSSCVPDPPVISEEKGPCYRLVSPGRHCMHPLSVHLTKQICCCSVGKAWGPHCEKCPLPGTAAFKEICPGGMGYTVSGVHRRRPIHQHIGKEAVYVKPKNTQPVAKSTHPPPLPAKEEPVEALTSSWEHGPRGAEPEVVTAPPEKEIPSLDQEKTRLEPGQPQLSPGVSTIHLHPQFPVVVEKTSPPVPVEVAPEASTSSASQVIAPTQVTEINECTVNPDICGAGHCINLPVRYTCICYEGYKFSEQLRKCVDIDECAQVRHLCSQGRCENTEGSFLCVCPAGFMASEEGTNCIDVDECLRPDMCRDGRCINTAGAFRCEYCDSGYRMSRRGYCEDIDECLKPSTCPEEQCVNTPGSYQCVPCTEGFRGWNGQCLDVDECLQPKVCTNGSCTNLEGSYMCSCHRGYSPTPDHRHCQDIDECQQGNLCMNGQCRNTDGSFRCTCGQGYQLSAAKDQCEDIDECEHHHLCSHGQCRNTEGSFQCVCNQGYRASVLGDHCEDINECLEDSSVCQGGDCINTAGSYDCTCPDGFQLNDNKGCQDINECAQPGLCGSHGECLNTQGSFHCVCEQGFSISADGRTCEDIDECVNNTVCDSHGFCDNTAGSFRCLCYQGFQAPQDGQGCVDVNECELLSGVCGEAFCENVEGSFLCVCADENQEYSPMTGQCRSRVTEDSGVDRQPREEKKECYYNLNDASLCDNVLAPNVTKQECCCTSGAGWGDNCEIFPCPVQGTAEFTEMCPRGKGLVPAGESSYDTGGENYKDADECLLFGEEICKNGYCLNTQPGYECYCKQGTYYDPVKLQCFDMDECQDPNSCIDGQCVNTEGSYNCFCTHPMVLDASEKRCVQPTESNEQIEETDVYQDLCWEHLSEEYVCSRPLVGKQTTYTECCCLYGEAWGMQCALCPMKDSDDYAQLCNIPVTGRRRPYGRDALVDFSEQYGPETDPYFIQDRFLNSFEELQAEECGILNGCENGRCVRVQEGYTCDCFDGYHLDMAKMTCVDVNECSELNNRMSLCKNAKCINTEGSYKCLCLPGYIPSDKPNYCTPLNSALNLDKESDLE

[2] = molecular target: T1, human LTBP1-proTGFβ1 complex; experiment: Octet, biotinylated complex on streptavidin tips (FIG. 11)
[3] = molecular target: LTBP3-proTGFβ1 complex (human) (UniProt Q9NS15); experiment: ELISA, RLU mean ± SD; antibody concentration not shown
[4] = molecular target: T1, human LTBP1-proTGFβ1 complex; experiment: as above
[5] = molecular target: mouse LTBP1-proTGFβ1 complex (mouse) (UniProt Q8CG19); experiment: as above
[6] = molecular target: LTBP3-proTGFβ1 complex (human) (UniProt Q9NS15); experiment: ELISA vs. recombinant proTGFβ1 protein complexes, relative binding (RLU); antibody concentration not shown
[7] = molecular target: T1, human LTBP1-proTGFβ1 complex; experiment: as above

Measured: binding

B1: SR-AB2 (antibody, V domains shown)
VH: QVQLVQSGAEVKKPGASVKVSCKASGYTFTSYGISWVRQAPGQGLEWMGWISAYNGNTNYAQKLQGRVTMTTDTSTSTAYMELRSLRSDDTAVYYCARAPLGNFDSWGQGTMVTVSS
VL: NFMLTQPHSVSESPGKTVTISCTRSSGSIASNYVQWYQQRPGSSPTTVIYEDNQRPSGVPDRFSGSIDSSSNSASLTISGLKTEDEADYYCQSYDSSNHPVVFGGGTKLTVL
binds: [1] | [2] | [3] | [4] | [5] | [6] | [7]

B2: SR-AB10 (antibody, V domains shown)
VH: QLQLQESGGGVVQPGRSLRLSCAASGFTFNNYPIHWVRQAPGKGLEWVAVMSYDGINKYYADSVKGRFTISRDNSKNTLYLQMNSLRAEDTAVYYCARPRIAARRGGFDYWGQGTLVTVSS
VL: B1 VL with S28N, A30D, S31N, S97D, H99Q, P100G
binds: [1] | [2]

From patent US20260234272A1 (SCHOLAR ROCK, published 2026)
